For at least one compound, name, drawing or mass did not settle the structure.
Assays:
R cells = assay: Proliferation of R cells, 3H-thymidine uptake; type: cell-based, mouse; conditions: 1/2 serial dilutions starting with 10 ng/ml; 48 hours culture, then 12 hours 3H-thymidine
Method: (§1) R cells, N62.5 cells, or RCCM cells obtained in Example 1 were placed in each well of a 96-well microplate at a seeding density of 1.5×10^4 cells/well. A culture medium in which the content of RCGF was changed was used and the sensitivities of the cells to RCGF were confirmed.
(§2) The concentrations of RCGF were set to 10 v/v %, 0.1 v/v %, and 0 v/v %. The cells were cultured in an RPMI 1640 culture medium containing 10% by volume of serum at 37° C. in 5% CO2 atmosphere for 48 hours. Thereafter, ^3H-thymidine was added to the culture medium so as to give a final concentration of 0.5 μCi/ml, and the resultant was further cultured for 12 hours and the uptake amount of ^3H during the time was measured. After the reaction, the uptake amount of ^3H-thymidine was measured using MicroBeta TRIL UX (manufactured by WALLAC). In FIGS. 1 (A) to (C), black rhombuses indicate RCCM cells, black squares indicate R cells, and black triangles indicate N62.5 cells. […]
(§3) In this regard, the concentration of RCGF was based on ½ serial dilutions (starting with 80% by volume of the culture medium). […] Thereafter, ^3H-thymidine was added to the culture medium so as to give a final concentration of 0.5 μCi/ml, and the resultant was further cultured for 12 hours and the uptake amount of ^3H during the time was measured. […]

RCCM cells = assay: Proliferation of RCCM cells, 3H-thymidine uptake; type: cell-based, mouse; conditions: 1/2 serial dilutions starting with 10 ng/ml; 48 hours culture, then 12 hours 3H-thymidine
Method: as §1, §2, §3

## O=c1cc(N2CCOCC2)oc2c(-c3ccccc3)cccc12 [LY294002]
R cells
  proliferation of R cells in response to inhibitor (uptake amount of 3H-thymidine): almost the same reactivity as that of N62.5 cells
RCCM cells
  proliferation of RCCM cells in response to inhibitor (uptake amount of 3H-thymidine): suppressed by a lower concentration

Source: patent US8148058B2, “Method for screening allergic disease-related molecule and cell lines to be used in the method” (Tokyo University of Science Educational Foundation …, priority 2006, dated 2012)
